From a melanoma drug combination screen (doi:10.1371/journal.pone.0140310); values rounded.

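Human melanoma cells were exposed to two drugs together for 72 h in 1,536-well plates and read by automated microscopy after fixing and staining. Values are the share of nuclei positive for cleaved PARP as a percentage of the same share in the DMSO control: 100 is the control level, higher means more apoptosis. Concentrations were fixed for each drug; these are the higher of two levels. No replicate spread is given; individual values may be noisy. Basal and induced levels differ widely between cell lines.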
This is part of the screen, not chosen by result.

Compounds and concentrations:
vorinostat (0.4 µM): O=C(CCCCCCC(=O)Nc1ccccc1)NO
dovitinib (0.5 µM): CN1CCN(c2ccc3nc(-c4c(N)c5c(F)cccc5[nH]c4=O)[nH]c3c2)CC1
T0901317 (7 µM): O=S(=O)(c1ccccc1)N(CC(F)(F)F)c1ccc(C(O)(C(F)(F)F)C(F)(F)F)cc1
fludarabine (1 µM): Nc1nc(F)nc2c1ncn2[C@@H]1O[C@H](CO)[C@@H](O)[C@@H]1O
lestaurtinib (0.02 µM): C[C@]12O[C@H](C[C@]1(O)CO)n1c3ccccc3c3c4c(c5c6ccccc6n2c5c31)CNC4=O
PF-562271 (0.4 µM): CN(c1ncccc1CNc1nc(Nc2ccc3c(c2)CC(=O)N3)ncc1C(F)(F)F)S(C)(=O)=O
temozolomide (10 µM): Cn1nnc2c(C(N)=O)ncn2c1=O
fingolimod (10 µM): CCCCCCCCc1ccc(CCC(N)(CO)CO)cc1
tamatinib (2 µM): COc1cc(Nc2ncc(F)c(Nc3ccc4c(n3)NC(=O)C(C)(C)O4)n2)cc(OC)c1OC
enzastaurin (4 µM): Cn1cc(C2=C(c3cn(C4CCN(Cc5ccccn5)CC4)c4ccccc34)C(=O)NC2=O)c2ccccc21
CX-4945 (2 µM): O=C(O)c1ccc2c(c1)nc(Nc1cccc(Cl)c1)c1ccncc12
TCS401 (8.33 µM): O=C(O)C(=O)Nc1sc2c(c1C(=O)O)CCNC2

| Pair | A375 |
|---|---|
| fludarabine + lestaurtinib | 378 |
| T0901317 + fingolimod | 187 |
| dovitinib + fludarabine | 130 |
| PF-562271 + enzastaurin | 204 |
| T0901317 + lestaurtinib | 91.6 |
| dovitinib + enzastaurin | 92.7 |
| temozolomide + fludarabine | 683 |
| enzastaurin + CX-4945 | 195 |
| lestaurtinib + dovitinib | 130 |
| fingolimod + dovitinib | 236 |
| T0901317 + PF-562271 | 237 |
| TCS401 + tamatinib | 34.0 |
| dovitinib + TCS401 | 135 |
| PF-562271 + fingolimod | 524 |
| PF-562271 + dovitinib | 48.6 |
| T0901317 + enzastaurin | 85.4 |
| PF-562271 + temozolomide | 297 |
| PF-562271 + lestaurtinib | 76.8 |
| dovitinib + CX-4945 | 387 |
| T0901317 + vorinostat | 66.6 |
| lestaurtinib + enzastaurin | 92.2 |
| temozolomide + T0901317 | 93.1 |
| TCS401 + vorinostat | 29.4 |
| CX-4945 + fingolimod | 192 |

Once more, the final 2:

| Pair | A375 |
|---|---|
| TCS401 + vorinostat | 29.4 |
| CX-4945 + fingolimod | 192 |